Experimental data: the supplement of paper PMC3334620
Over roughly 33,000 sequences, “E-score (-0.5 to 0.5)” has its median near -0.0014; the highest 2% begin near 0.25. Some of the results follow.

These sequences were tested against T1, Cad1 (UniProt P24813) (assay: PBM E-score (8-mer binding enrichment) (E-score (-0.5 to 0.5)); higher = stronger / more preferred TF binding). Details: protein concentration: 100 nM; construct: GST-full length.
T1 sequence: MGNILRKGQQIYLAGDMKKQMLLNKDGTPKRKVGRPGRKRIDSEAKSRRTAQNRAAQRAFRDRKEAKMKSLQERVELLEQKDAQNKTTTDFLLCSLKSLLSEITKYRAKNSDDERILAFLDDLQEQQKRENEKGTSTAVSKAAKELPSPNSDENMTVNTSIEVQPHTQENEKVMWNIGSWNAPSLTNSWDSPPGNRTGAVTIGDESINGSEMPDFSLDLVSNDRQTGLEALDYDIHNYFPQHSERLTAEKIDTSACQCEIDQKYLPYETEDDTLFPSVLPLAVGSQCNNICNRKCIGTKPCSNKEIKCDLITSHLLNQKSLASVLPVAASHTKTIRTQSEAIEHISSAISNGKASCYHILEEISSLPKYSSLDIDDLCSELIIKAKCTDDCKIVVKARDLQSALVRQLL
Experimental: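 Universal 'all 10-mer' protein binding microarrays (Agilent AMADID 015681) probed with GST-tagged S. cerevisiae TFs (full-length or DBD) made by in vitro transcription/translation (PURExpress), about 100-200 nM. Bound TF was detected with fluorescent anti-GST. Each ungapped 8-mer (which stands for itself and its reverse complement) is scored by the PBM enrichment score (E-score), a modified Wilcoxon-Mann-Whitney statistic from -0.5 to +0.5, computed with the Universal PBM Analysis Suite. Scale: above 0.35 generally sequence-specific binding.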

Sequence | PBM E-score
TATTTCAA | 0.309
CAACAGGC | -0.0199
AATCCAGT | 0.118
CGCTGGTA | 0.0577
AACCACCT | 0.0185
AAGCTTGG | -0.125
ACGCCATG | 0.0731
ACCCAAGT | -0.0625
AACTAGTC | -0.14
ATACTGGG | -0.256
AACGATCG | 0.153
AGGAGGAA | -0.218
CTCTTCCC | -0.22
CAGGAACC | -0.0733
AGCGTGAC | 0.0299
ATATCCAT | 0.0512
AGATCTAT | -0.0031
AATTGGTC | 0.0715
CACGTCAA | -0.0595
ATTTCCAC | 0.12
GAAACTTC | -0.00251
ATCCGTCC | -0.171

Sequence | PBM E-score
CGGGTACC | -0.136
AGTGCTGA | -0.0168
ACGGCGGC | -0.0474
CCCTTACC | -0.215
ACGAACCG | 0.0904
AGCTCTTG | -0.197
ATTAAAGG | 0.0901
ACGCTAGG | -0.265
CTTTCGTA | 0.0939
GACGTACC | -0.0757
AGCCTAAT | -0.0781
AATATTAA | 0.281
ATATATGA | 0.172
CGGTCCAG | -0.103
AACAACGC | 0.102
ACGTCAAA | 0.0749
CACCCTTA | -0.0112
GTATGATA | 0.23
GCCAGGCA | -0.11
TAAGAGCA | 0.108
CAATAAAG | 0.132
ACGCGCAT | 0.105

Sequence | PBM E-score
CCCCTGGA | -0.272
GCGAATCA | 0.227
GCTTAGAC | -0.238
ATGAGTGG | -0.201
CCAAGGCC | -0.144
TCCTGGCA | -0.0466
ATGTTTGA | -0.106
GCGCTCCC | 0.0441
CGCCGGGA | -0.126
CATGTATA | 0.22
CACGAACA | 0.249
ATAACGTA | 0.164
ATGCTGTG | 0.117
GCCGGGCC | -0.145
ACGAATAA | -0.0279
GGGCCTTA | -0.0621
GACCAGAA | -0.0367
ACCAACCG | 0.0729
GCGAGGCC | -0.113
GTACGAAC | 0.249
GCAGAACA | 0.0554
AGGTCTCG | -0.2

5 entries from above, as comma-separated lines:
Sequence,PBM E-score
ACCAACCG,0.0729
GCGAGGCC,-0.113
GTACGAAC,0.249
GCAGAACA,0.0554
AGGTCTCG,-0.2

(further entries)

Sequence | PBM E-score
GTTTCGAA | 0.0707
AGCCCCCA | -0.369
TCCTTGCA | -0.179
ATGTCAGA | -0.0566
AGATATCC | 0.128
AAATGATT | 0.261
AGGGACAA | -0.0582
GTAAAGGA | -0.0509
CACTTGAG | -0.16
ACCCCCTA | -0.408
CTACTGGA | -0.0843
TCCGTGAA | 0.0445
ACGATCGC | 0.144
AGCGAACA | 0.195
AGTGTAAC | -0.122
GAAGAATA | 0.0544
GCCACACA | 0.0268
CACGCACA | 0.0737
CGGGGACG | -0.168
ACTGTGTC | 0.0874
AATTAGGG | -0.172
ACGAACAA | 0.184

Single entries from above.
Under PBM E-score, CATGTATA reads 0.22
Under PBM E-score, GACCAGAA reads -0.0367

The listing continues:

Sequence | PBM E-score
CTGGCTAA | -0.119
CAATGGTA | 0.0824
AGGGAGCC | -0.297
ACAATCAC | 0.00448
ATTCGAAC | 0.153
GCGCACGC | -0.0892
GCAGGCGC | 0.0926
AAGGCCCC | -0.278
TGGATGAA | -0.00755
CGCCCCCG | -0.333
ACTTACGC | 0.0274
GACTCTGA | -0.0113
GTCGGGGA | -0.0306
AGTTGAAC | -0.0384
AGTGTTTC | 0.155
TGCTCACA | 0.0213
ATACTCGG | 0.139
AAGAATAC | 0.012
GACAATTA | 0.101
ACGAGGCG | 0.147
AGATAGCT | -0.0292
CCGAGGAG | -0.284
